Data reported in patent US20060188903A1, “Implantation serine proteinases” (priority 2001, published 2006).
At least one structure is not confirmed: it was looked up by name or label, or the drawing left a doubt.

Tested on: ISP2 mRNA
Test: Uterine ISP2 gene expression by in situ hybridization in hormone- or RU486-treated mice
Assay type: in vivo, mouse
Method: All surgical procedures were carried out after the mice were anaesthetized with an i.p. injection of Avertin (2% (w/v) tribromoethanol; Aldrich Chemical Co. Milwaukee, Wis.). Ovariectomy was performed by dorsal-lateral incision (Hogan et al., 1994). Ovariectomized mice were allowed at least 1 wk for recovery before the induction of deciduomas. All steroid hormones including RU486 were dissolved in sesame oil and injected s.c. At each stage of the experiment, control mice were used which received only oil (0.1 ml/mouse) injections. The standard regimen for artificial induction of deciduomas (Finn, 1966) was modified to more closely mimic pseudo-pregnancy (Milligan, 1995). Here, the first progesterone treatment was started […] after exposure to oestrogen. This modified regimen consisted of 100 ng oestrogen daily starting on Day 0, and 1 mg progesterone plus 10 ng oestrogen from day three onward. Deciduomas were induced surgically on Day 5 (between 1400-1600 h) by injecting sesame oil (10 μl) into the lumen of one uterine horn from its oviductal tip. Injected and uninjected horns were collected 24, 48 or 72 hours later for histological sectioning and in situ hybridization analysis.
Delayed implantation was induced and maintained by ovariectomising mice on day 3 of pregnancy, followed by administration of progesterone (2 mg/mouse) on days 4 to 6. Subsequently, half these mice were treated with estrogen (25 ng/mouse) on the morning of the seventh day, while the other half received the normal progesterone injection. Mice were sacrificed 24 hours later for analysis by in situ hybridization.
The effect of steroids on uterine development in the absence of blastocysts was examined by ovariectomizing mice and treating them with hormone injections after a two week recovery period. […] To further determine the importance of progesterone on ISP2 gene expression superovulated pregnant and pseudo-pregnant mice (Hogan et al., 1994) were treated with RU486 (400 μg/mouse) on the morning of the third day after a vaginal plug was detected. […]

## CC#C[C@]1(O)CC[C@H]2[C@@H]3CCC4=CC(=O)CCC4=C3[C@@H](c3ccc(N(C)C)cc3)C[C@@]21C [RU486]
Pregnant uterus (FIG. 16b)
  ISP2 mRNA staining in uterus: No ISP mRNA staining
Pseudopregnant uterus (FIG. 16d)
  ISP2 mRNA staining in uterus: No ISP2 mRNA staining
Treated on day three of pregnancy or pseudo-pregnancy, sacrificed the following day
  ISP2 mRNA staining in uterine sections: not observed
